Reference: paper PMC10649565
Results are given in words; binding and its absence hold for the method and conditions named. Binding seen in cells or lysates may run through a third protein. Some results given as binding are weak or reduced against the parent protein; the word gives no strength. For part of these data: Sequences can lack the tags named with a protein. One block for each binder: values may come before it.

Assays:
[1] = target: T1, GFP-Gemin2 wt (human), O14893; assay: co-IP; GFP immunopurification: S100 extracts of doxycycline-induced (0.1 µg/mL, 24 h) Flp-In T-REx 293 cells on GFP-Trap beads, at least 2 h at 4 °C, washed 3 times with DPBS; Western blot; settings: remark: other sources report otherwise
T1 chain: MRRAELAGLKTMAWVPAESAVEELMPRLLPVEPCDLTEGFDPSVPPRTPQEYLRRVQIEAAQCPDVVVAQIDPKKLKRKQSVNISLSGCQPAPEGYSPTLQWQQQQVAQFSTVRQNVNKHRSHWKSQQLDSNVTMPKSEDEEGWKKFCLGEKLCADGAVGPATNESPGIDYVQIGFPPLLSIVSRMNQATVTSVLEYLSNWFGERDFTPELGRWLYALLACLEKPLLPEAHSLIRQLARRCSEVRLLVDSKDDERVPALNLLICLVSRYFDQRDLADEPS

[2] = target: GFP-SMN wt (human), Q16637; assay: as above; settings: remark: other sources report otherwise

binding [1]: binds
binding [2]: binds
B1: Gemin4 (endogenous), P57678 1-1058 (protein)
chain: MDLGPLNICEEMTILHGGFLLAEQLFHPKALAELTKSDWERVGRPIVEALREISSAAAHSQPFAWKKKALIIIWAKVLQPHPVTPSDTETRWQEDLFFSVGNMIPTINHTILFELLKSLEASGLFIQLLMALPTTICHAELERFLEHVTVDTSAEDVAFFLDVWWEVMKHKGHPQDPLLSQFSAMAHKYLPALDEFPHPPKRLRSDPDACPTMPLLAMLLRGLTQIQSRILGPGRKCCALANLADMLTVFALTEDDPQEVSATVYLDKLATVISVWNSDTQNPYHQQALAEKVKEAERDVSLTSLAKLPSETIFVGCEFLHHLLREWGEELQAVLRSSQGTSYDSYRLCDSLTSFSQNATLYLNRTSLSKEDRQVVSELAECVRDFLRKTSTVLKNRALEDITASIAMAVIQQKMDRHMEVCYIFASEKKWAFSDEWVACLGSNRALFRQPDLVLRLLETVIDVSTADRAIPESQIRQVIHLILECYADLSLPGKNKVLAGILRSWGRKGLSEKLLAYVEGFQEDLNTTFNQLTQSASEQGLAKAVASVARLVIVHPEVTVKKMCSLAVVNLGTHKFLAQILTAFPALRFVEEQGPNSSATFMVSCLKETVWMKFSTPKEEKQFLELLNCLMSPVKPQGIPVAALLEPDEVLKEFVLPFLRLDVEEVDLSLRIFIQTLEANACREEYWLQTCSPFPLLFSLCQLLDRFSKYWQLPKEKRCLSLDRKDLAIHILELLCEIVSANAETFSPDVWIKSLSWLHRKLEQLDWTVGLRLKSFFEGHFKCEVPATLFEICKLSEDEWTSQAHPGYGAGTGLLAWMECCCVSSGISERMLSLLVVDVGNPEEVRLFSKGFLVALVQVMPWCSPQEWQRLHQLTRRLLEKQLLHVPYSLEYIQFVPLLNLKPFAQELQLSVLFLRTFQFLCSHSCRDWLPLEGWNHVVKLLCGSLTRLLDSVRAIQAAGPWVQGPEQDLTQEALFVYTQVFCHALHIMAMLHPEVCEPLYVLALETLTCYETLSKTNPSVSSLLQRAHEQRFLKSIAEGIGPEERRQTLLQKMSSF

binding [1]: binds
B2: Gemin2 (endogenous), O14893 1-280 (protein)
chain: T1 chain
